# The supplement of paper PMC11732987, “Enantioselective OTUD7B fragment discovery through chemoproteomics screening and high-throughput optimisation” (Communications Chemistry, 2025)
# The chains behind the UniProt entries cited, without tags or fusion partners. Where a name states a change or a piece, a line headed by the entry shows the natural chain unless it says otherwise. Residues count along the entry.
# UniProt O00471, 558-578: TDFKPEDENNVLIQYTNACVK
# UniProt Q9BSJ8: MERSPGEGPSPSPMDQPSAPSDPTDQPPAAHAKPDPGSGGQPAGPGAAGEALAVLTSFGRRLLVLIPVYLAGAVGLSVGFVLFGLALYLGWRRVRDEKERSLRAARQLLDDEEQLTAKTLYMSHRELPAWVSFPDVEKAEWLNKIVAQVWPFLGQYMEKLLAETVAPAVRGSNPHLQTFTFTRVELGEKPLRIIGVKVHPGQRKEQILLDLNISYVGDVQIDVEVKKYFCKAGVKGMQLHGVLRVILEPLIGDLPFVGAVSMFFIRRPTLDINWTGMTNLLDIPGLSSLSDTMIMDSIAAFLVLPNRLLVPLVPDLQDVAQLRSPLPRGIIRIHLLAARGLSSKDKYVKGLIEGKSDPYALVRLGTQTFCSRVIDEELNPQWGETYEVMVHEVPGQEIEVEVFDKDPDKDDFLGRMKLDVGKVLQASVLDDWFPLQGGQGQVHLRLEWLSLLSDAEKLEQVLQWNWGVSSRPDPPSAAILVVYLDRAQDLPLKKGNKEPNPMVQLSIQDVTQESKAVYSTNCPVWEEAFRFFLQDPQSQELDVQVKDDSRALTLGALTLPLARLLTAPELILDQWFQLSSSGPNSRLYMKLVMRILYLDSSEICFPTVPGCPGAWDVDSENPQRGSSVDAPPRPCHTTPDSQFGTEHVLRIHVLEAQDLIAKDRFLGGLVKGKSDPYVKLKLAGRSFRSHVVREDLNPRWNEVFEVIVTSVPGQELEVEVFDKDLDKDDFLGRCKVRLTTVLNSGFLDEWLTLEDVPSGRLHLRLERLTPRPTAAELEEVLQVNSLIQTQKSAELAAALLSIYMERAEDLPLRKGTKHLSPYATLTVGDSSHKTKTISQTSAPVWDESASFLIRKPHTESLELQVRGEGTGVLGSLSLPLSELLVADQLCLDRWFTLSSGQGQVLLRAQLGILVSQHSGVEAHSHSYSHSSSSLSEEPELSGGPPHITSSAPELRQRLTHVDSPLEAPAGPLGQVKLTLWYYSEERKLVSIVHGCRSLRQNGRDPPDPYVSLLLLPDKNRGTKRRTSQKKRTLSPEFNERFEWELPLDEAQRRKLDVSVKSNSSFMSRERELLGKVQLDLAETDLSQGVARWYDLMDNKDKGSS
# UniProt P28715: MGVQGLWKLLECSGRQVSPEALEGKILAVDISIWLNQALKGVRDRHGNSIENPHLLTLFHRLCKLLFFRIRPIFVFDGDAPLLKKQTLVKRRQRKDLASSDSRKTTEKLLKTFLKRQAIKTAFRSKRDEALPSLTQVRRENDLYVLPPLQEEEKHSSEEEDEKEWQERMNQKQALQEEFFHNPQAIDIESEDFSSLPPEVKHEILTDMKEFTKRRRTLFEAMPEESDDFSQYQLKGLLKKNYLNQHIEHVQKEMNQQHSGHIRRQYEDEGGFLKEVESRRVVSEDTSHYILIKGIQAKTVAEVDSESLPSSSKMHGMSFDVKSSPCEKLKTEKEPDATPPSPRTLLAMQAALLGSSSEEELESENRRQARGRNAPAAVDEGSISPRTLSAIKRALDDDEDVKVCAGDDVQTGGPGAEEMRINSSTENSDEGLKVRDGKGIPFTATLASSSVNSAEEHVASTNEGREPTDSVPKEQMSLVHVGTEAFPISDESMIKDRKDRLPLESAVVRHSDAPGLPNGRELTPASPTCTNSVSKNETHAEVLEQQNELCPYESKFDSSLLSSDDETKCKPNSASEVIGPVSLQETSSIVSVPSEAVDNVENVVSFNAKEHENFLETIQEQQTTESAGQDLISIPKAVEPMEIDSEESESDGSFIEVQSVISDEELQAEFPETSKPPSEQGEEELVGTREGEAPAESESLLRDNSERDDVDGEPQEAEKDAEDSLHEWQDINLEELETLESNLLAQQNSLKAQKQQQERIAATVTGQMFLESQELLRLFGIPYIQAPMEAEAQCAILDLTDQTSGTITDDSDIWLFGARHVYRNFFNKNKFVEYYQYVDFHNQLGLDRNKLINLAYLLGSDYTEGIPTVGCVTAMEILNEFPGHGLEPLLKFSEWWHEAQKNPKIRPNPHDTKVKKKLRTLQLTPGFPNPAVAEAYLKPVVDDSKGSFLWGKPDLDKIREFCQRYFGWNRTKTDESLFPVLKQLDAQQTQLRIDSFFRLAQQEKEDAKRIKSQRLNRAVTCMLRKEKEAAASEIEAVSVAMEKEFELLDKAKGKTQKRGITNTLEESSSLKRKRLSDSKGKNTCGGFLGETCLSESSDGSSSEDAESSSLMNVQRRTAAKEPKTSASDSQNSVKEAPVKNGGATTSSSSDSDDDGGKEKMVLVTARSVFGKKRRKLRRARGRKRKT
# UniProt Q96EK7: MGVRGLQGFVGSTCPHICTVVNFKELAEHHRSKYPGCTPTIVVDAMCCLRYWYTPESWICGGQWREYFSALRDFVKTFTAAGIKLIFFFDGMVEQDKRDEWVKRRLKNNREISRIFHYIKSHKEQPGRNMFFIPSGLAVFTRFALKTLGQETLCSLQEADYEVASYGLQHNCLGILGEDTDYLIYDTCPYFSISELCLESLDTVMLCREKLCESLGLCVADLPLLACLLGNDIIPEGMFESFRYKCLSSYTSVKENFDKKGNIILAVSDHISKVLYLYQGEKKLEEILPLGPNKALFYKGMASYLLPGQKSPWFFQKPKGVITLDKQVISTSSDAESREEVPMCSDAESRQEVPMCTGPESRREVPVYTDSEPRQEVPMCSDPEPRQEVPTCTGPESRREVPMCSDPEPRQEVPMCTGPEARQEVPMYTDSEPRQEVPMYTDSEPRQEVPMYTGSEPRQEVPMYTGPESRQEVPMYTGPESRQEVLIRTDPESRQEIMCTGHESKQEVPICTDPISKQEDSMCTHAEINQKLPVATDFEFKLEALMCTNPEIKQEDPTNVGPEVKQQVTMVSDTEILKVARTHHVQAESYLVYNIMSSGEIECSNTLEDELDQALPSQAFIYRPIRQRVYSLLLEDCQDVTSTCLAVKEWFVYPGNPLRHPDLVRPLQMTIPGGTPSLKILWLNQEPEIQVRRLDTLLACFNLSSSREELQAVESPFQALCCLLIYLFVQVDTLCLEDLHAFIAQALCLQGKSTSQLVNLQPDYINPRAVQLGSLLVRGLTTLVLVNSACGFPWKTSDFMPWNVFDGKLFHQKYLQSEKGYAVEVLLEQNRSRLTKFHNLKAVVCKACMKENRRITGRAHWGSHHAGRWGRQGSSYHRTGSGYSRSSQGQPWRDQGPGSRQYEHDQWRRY
# UniProt Q96HE7: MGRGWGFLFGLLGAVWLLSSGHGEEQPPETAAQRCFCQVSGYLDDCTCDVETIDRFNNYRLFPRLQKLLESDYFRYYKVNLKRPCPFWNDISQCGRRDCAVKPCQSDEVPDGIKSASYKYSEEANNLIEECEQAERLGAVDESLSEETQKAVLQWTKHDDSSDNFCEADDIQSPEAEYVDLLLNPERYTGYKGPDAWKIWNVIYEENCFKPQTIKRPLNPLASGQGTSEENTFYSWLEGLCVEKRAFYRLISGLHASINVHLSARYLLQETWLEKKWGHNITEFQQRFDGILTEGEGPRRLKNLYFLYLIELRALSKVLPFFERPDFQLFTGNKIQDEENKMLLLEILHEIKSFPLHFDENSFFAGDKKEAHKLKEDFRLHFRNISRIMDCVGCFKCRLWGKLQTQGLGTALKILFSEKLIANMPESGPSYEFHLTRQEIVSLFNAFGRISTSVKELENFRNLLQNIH
# UniProt Q96B26, whole entry, looked up: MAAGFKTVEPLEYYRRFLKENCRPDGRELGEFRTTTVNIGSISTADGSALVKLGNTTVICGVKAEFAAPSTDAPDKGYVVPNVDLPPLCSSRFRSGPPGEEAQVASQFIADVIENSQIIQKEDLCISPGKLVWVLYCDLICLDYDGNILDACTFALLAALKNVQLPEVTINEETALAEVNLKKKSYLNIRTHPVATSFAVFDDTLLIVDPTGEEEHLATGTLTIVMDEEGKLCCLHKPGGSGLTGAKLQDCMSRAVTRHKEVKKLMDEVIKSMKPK
# UniProt Q9NYP7: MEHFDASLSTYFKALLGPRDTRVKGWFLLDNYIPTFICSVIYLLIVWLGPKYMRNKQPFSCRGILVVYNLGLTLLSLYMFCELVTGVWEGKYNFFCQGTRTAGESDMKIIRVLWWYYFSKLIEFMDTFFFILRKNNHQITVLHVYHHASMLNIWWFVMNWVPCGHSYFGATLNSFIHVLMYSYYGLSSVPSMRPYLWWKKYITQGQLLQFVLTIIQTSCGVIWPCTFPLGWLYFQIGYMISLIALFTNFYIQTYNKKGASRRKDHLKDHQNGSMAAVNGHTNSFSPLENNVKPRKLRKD
# UniProt Q96EB1: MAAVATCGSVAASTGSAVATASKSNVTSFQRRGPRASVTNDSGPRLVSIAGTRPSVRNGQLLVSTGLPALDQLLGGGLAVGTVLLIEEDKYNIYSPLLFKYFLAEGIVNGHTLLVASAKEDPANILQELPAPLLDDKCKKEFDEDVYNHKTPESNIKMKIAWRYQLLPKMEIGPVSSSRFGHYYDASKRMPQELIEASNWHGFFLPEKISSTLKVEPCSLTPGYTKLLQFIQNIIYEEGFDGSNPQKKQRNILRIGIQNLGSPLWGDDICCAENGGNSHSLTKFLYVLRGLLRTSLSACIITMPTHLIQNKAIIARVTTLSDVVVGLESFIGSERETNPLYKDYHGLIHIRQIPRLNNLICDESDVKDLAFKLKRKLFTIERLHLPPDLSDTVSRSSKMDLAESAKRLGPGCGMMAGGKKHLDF
# UniProt Q6P587: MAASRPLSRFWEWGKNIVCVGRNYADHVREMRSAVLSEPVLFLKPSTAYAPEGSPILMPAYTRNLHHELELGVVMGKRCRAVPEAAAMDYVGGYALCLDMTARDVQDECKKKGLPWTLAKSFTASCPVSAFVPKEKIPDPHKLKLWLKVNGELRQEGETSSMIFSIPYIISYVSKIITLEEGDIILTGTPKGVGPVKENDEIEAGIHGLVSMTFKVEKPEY
# UniProt P42566, 817-836: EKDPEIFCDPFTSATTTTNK
# UniProt Q9UBU6: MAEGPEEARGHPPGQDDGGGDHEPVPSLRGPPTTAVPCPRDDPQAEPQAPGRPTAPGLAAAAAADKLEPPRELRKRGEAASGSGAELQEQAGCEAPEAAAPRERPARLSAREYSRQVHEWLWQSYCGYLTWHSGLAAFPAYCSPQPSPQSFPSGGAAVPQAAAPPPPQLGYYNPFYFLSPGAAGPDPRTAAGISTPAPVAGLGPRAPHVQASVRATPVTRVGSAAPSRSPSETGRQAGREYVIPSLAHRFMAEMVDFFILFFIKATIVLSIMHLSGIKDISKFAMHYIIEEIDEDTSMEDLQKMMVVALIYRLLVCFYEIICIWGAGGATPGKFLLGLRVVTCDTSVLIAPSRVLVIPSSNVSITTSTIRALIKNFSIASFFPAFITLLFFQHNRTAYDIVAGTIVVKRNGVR
# UniProt Q2NKX8: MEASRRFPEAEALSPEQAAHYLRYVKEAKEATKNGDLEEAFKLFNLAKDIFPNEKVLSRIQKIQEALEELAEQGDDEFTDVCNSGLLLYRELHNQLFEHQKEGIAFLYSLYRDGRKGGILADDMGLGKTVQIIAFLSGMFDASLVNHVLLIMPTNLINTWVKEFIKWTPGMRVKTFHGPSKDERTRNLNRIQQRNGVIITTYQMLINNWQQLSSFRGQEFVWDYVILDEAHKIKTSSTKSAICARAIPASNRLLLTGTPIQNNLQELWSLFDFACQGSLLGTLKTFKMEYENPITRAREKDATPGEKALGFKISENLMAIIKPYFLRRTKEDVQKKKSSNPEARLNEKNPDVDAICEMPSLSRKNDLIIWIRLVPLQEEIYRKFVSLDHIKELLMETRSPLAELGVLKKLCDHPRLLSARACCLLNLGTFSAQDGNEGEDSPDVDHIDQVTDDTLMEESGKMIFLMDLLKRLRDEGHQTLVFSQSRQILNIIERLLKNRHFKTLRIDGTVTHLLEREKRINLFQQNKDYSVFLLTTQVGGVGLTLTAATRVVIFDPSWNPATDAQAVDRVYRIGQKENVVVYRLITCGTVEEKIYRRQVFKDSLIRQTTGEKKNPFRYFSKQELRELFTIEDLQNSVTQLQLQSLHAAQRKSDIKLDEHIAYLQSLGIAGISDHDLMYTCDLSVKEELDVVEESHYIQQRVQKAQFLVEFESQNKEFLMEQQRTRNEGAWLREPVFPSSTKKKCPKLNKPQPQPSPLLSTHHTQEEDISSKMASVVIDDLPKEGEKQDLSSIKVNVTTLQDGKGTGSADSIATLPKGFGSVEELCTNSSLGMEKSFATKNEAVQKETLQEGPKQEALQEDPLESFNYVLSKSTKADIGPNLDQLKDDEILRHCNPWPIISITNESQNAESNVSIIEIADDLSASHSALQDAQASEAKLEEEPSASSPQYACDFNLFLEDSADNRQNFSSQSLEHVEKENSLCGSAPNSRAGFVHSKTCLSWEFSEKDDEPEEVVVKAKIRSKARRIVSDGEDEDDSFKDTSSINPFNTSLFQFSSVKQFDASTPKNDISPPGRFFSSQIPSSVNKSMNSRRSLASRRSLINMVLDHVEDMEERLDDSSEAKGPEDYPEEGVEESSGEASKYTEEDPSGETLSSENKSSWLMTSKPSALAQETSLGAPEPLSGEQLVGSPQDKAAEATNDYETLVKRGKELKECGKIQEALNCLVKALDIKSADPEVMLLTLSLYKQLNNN
# This is one part of the list. The data scatter; read single values as rough.
# Compound: ClCC(=O)N[C@H]1CCCc2ccccc12
# Experiment: log2 mean competition ratio of IA-DTB cysteine labelling (DMSO/compound) (log2 ratio); higher = stronger cysteine engagement by compound
# Conditions: 50 µM; treatment time: 4 h; cell line lysate: HEK293T
# Description: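 IA-DTB competitive cysteine chemoproteomics in HEK293T RIPA lysate. Lysates were treated with compound 29 or 30 at 50 or 200 µM for 4 h, then IA-DTB (500 µM, 1 h), trypsin-digested, NeutrAvidin-enriched and analysed by diaPASEF. Competition ratio = intensity DMSO / intensity compound (n=4 treated, n=64 DMSO); binding: mean log2 CR ≥ 1 and p ≤ 0.05 plus QC filters. Target is the cysteine site.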
row,Target,log2 mean competition ratio
1,ESPNL C629,-0.159
2,ERCC3 C342 (UniProt P19447),0.691
3,EXOC5 C236 (UniProt O00471),-0.346
4,EPRS1 C697,-0.154
5,ESYT1 C370 (UniProt Q9BSJ8),0.229
6,EXOSC9 C9 (UniProt Q06265),0.271
7,ERCC5 C529 (UniProt P28715),-0.102
8,FAM120B C380(C404) (UniProt Q96EK7),-0.112
9,ERO1A C131 (UniProt Q96HE7),-0.444
10,ERCC6 C143,-0.211
11,ERCC4 C242 (UniProt Q92889),-0.483
12,FAM120B C380 (UniProt Q96EK7),0.157
13,EXOC5 C576 (UniProt O00471),0.172
14,ESCO1 C450,-0.0798
15,EXOSC8 C22 (UniProt Q96B26),-0.266
16,FAN1 C649,-0.52
17,ELOVL5 C96 (UniProt Q9NYP7),0.0993
18,ESRP2 C86 (UniProt Q9H6T0),0.15
19,EXOSC8 C89 (UniProt Q96B26),-0.238

row,Target,log2 mean competition ratio
1,FAM193B C766 (UniProt Q96PV7),0.0524
2,ELP4 C218 (UniProt Q96EB1),0.246
3,ESRRG C104,0.0696
4,FAM120B C511 (UniProt Q96EK7),0.136
5,EPS15L1 C470,-0.14
6,FAHD1 C129 (UniProt Q6P587),-0.0901
7,EPS15 C824 (UniProt P42566),-0.331
8,ESPNL C983,-0.0762
9,FAM136A C53 (UniProt Q96C01),0.178
10,ERI1 C75 (UniProt Q8IV48),0.621
11,EP400 C1775 (UniProt Q96L91),0.285
12,F2R C296 (UniProt P25116),-0.233
13,EME1 C437 (UniProt Q96AY2),-0.00888
14,ELP2 C204 (UniProt Q6IA86),-0.353
15,ELOVL5 C61 (UniProt Q9NYP7),0.131
16,FAM117B C198 (UniProt Q6P1L5),0.173
17,FAM8A1 C38 (UniProt Q9UBU6),0.137
18,FAM120B C356 (UniProt Q96EK7),0.0369
19,ERCC6L C1222 (UniProt Q2NKX8),0.0277

# Same assay, conditions: 200 µM; treatment time: 4 h; cell line lysate: HEK293T
row,Target,log2 mean competition ratio
1,ESPNL C629,0.202
2,ERCC3 C342 (UniProt P19447),0.644
3,EXOC5 C236 (UniProt O00471),0.0152
4,EPRS1 C697,0.104
5,ESYT1 C370 (UniProt Q9BSJ8),0.0902
6,EXOSC9 C9 (UniProt Q06265),-0.0969
7,ERCC5 C529 (UniProt P28715),-0.384
8,FAM120B C380(C404) (UniProt Q96EK7),0.182
9,ERO1A C131 (UniProt Q96HE7),0.19
10,ERCC6 C143,-0.368
11,ERCC4 C242 (UniProt Q92889),-0.196
12,FAM120B C380 (UniProt Q96EK7),0.0563
13,EXOC5 C576 (UniProt O00471),-0.51
14,ESCO1 C450,0.0171
15,EXOSC8 C22 (UniProt Q96B26),0.298
16,FAN1 C649,0.303
17,ELOVL5 C96 (UniProt Q9NYP7),-0.183
18,ESRP2 C86 (UniProt Q9H6T0),-0.0642
19,EXOSC8 C89 (UniProt Q96B26),-0.0212

row,Target,log2 mean competition ratio
1,FAM193B C766 (UniProt Q96PV7),-0.0203
2,ELP4 C218 (UniProt Q96EB1),1.14
3,ESRRG C104,0.106
4,FAM120B C511 (UniProt Q96EK7),-0.0191
5,EPS15L1 C470,0.108
6,FAHD1 C129 (UniProt Q6P587),0.163
7,EPS15 C824 (UniProt P42566),-0.0982
8,ESPNL C983,0.0466
9,FAM136A C53 (UniProt Q96C01),0.529
10,ERI1 C75 (UniProt Q8IV48),0.134
11,EP400 C1775 (UniProt Q96L91),-0.365
12,F2R C296 (UniProt P25116),-0.199
13,EME1 C437 (UniProt Q96AY2),0.0223
14,ELP2 C204 (UniProt Q6IA86),-0.151
15,ELOVL5 C61 (UniProt Q9NYP7),0.469
16,FAM117B C198 (UniProt Q6P1L5),0.173
17,FAM8A1 C38 (UniProt Q9UBU6),-0.149
18,FAM120B C356 (UniProt Q96EK7),0.122
19,ERCC6L C1222 (UniProt Q2NKX8),-0.0552
